In paper PMC6995195 one finds binding data, which are given here for one molecule.

The chains behind the UniProt entries cited, without tags or fusion partners.
UniProt P19474: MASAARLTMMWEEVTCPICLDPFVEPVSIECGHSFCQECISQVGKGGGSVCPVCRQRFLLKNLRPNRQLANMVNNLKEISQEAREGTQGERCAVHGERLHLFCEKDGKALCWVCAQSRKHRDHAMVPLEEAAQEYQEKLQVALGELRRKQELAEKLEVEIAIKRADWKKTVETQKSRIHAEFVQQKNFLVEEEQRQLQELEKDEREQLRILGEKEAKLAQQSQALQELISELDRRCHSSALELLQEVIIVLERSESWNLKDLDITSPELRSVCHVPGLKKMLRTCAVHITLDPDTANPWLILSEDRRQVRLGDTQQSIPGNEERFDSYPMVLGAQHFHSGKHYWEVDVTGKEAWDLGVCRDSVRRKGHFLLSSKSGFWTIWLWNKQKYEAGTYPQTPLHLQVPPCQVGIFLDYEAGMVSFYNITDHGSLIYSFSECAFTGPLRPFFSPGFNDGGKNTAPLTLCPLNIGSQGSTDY

No constants are given. Whether binding was seen depends on the method and setting. Binding seen in cells or lysates may run through a third protein. Some results given as binding are weak or reduced against the parent protein; the word gives no strength. Where a sequence is shown, tags or fusion partners need not be part of it.

The target in this test is TRIM21–MYC (tripartite motif–containing 21, MYC-tagged) (UniProt P19474). Briefly: co-IP; NPC cells (HONE1) with ectopic expression of SERPINB5, TRIM21 or GMPS, MG132 10 μM for 24 h; lysate incubated with tag antibody (anti-FLAG, anti-MYC or anti-HA) at 4 °C overnight, protein A/G agarose, western blot; cells with or without X-ray radiation (6 Gy); some panels in TRIM21 LOF or SERPINB5 LOF (CRISPR knockout) cells. A general note: A western blot detects proteins with antibodies after separation by electrophoresis.

B1: SERPINB5–HA (serpin family B member 5, HA-tagged) (protein, UniProt P36952 1-375)
chain: MDALQLANSAFAVDLFKQLCEKEPLGNVLFSPICLSTSLSLAQVGAKGDTANEIGQVLHFENVKDVPFGFQTVTSDVNKLSSFYSLKLIKRLYVDKSLNLSTEFISSTKRPYAKELETVDFKDKLEETKGQINNSIKDLTDGHFENILADNSVNDQTKILVVNAAYFVGKWMKKFSESETKECPFRVNKTDTKPVQMMNMEATFCMGNIDSINCKIIELPFQNKHLSMFILLPKDVEDESTGLEKIEKQLNSESLSQWTNPSTMANAKVKLSIPKFKVEKMIDPKACLENLGLKHIFSEDTSDFSGMSETKGVALSNVIHKVCLEITEDGGDSIEVPGARILQHKDELNADHPFIYIIRHNKTRNIIFFGKFCSP
On to B1, for which the binding entry is listed as “binds”.
